Results taken from patent US20130123168A1, “HUMANIN AND HUMANIN-ANALOGUES FOR THE MANAGEMENT OF ATHEROSCLEROSIS” (The Regents of the University of California, priority 2011, published 2013).

Test: Plasma HN level according to coronary endothelial function
Parameters: species or system human
Details: endogenous level
Protocol: Plasma HN levels were measured in 20 patients with normal coronary endothelial function and 20 patients with coronary endothelial dysfunction. Age, sex, smoking diabetes mellitus, hypertension, body mass index, total cholesterol, LDL-cholesterol, HDL-cholesterol and TG level were not different between the two groups. […] FIG. 8.

## humanin [HN]
Normal coronary endothelial function group
  plasma HN level: 2.20 ± 0.33 ng/mL
Patients with coronary endothelial dysfunction
  plasma HN level: 1.28 ± 0.25 ng/mL
